The record followed here is PMC10785435.

No constants are given. Whether binding was seen depends on the method and setting. Binding seen in cells or lysates may run through a third protein. Binding calls can cover weak binding; strength is not graded here.

Test [1] addresses Angiopoietin-like 4 (human (endogenous in SKOV3, Hey-A8 and HUVEC)). The experiment in a line: co-IP; Hey-A8 cells with ESM1 overexpression (interaction increased) and SKOV3 cells with ESM1 knockdown (interaction decreased); Protein A/G agarose, RIPA washes, Western blot. (Immunoblotting shows a protein as a band on a membrane.)
For test [2] the target is unchanged. Nature of the test: co-IP; HUVECs cultured with conditioned medium of Hey-A8 cells overexpressing ESM1 (binding decreased) or of SKOV3 cells with ESM1 knockdown (binding increased); Protein A/G agarose, RIPA washes, Western blot.
For test [3] the target is unchanged. The experiment in a line: co-IP; anti-ANGPTL4 antibody, nuclear or cytoplasmic fraction of SKOV3 cells; Protein A/G agarose, pellets washed three times with RIPA buffer, Western blot; also SKOV3 cells treated with the JAK activator Colivelin (Fig. S6D: no significant effect on the binding).

B1: lipoprotein lipase (enzyme, UniProt P06858 28-475)
chain: ADQRRDFIDIESKFALRTPEDTAEDTCHLIPGVAESVATCHFNHSSKTFMVIHGWTVTGMYESWVPKLVAALYKREPDSNVIVVDWLSRAQEHYPVSAGYTKLVGQDVARFINWMEEEFNYPLDNVHLLGYSLGAHAAGIAGSLTNKKVNRITGLDPAGPNFEYAEAPSRLSPDDADFVDVLHTFTRGSPGRSIGIQKPVGHVDIYPNGGTFQPGCNIGEAIRVIAERGLGDVDQLVKCSHERSIHLFIDSLLNEENPSKAYRCSSKEAFEKGLCLSCRKNRCNNLGYEINKVRAKRSSKMYLKTRSQMPYKVFHYQVKIHFSGTESETHTNQAFEISLYGTVAESENIPFTLPEVSTNKTYSFLIYTEVDIGELLMLKLKWKSDSYFSWSDWWSSPGFAIQKIRVKAGETQKKVIFCSREKVSHLQKGKAPAVFVKCHDKSLNKKSG
Consider B1, for which, in test [1], the binding entry was “binds”.

B2: vascular-endothelial cadherin (protein, UniProt P33151 48-784)
chain: DWIWNQMHIDEEKNTSLPHHVGKIKSSVSRKNAKYLLKGEYVGKVFRVDAETGDVFAIERLDRENISEYHLTAVIVDKDTGENLETPSSFTIKVHDVNDNWPVFTHRLFNASVPESSAVGTSVISVTAVDADDPTVGDHASVMYQILKGKEYFAIDNSGRIITITKSLDREKQARYEIVVEARDAQGLRGDSGTATVLVTLQDINDNFPFFTQTKYTFVVPEDTRVGTSVGSLFVEDPDEPQNRMTKYSILRGDYQDAFTIETNPAHNEGIIKPMKPLDYEYIQQYSFIVEATDPTIDLRYMSPPAGNRAQVIINITDVDEPPIFQQPFYHFQLKENQKKPLIGTVLAMDPDAARHSIGYSIRRTSDKGQFFRVTKKGDIYNEKELDREVYPWYNLTVEAKELDSTGTPTGKESIVQVHIEVLDENDNAPEFAKPYQPKVCENAVHGQLVLQISAIDKDITPRNVKFKFILNTENNFTLTDNHDNTANITVKYGQFDREHTKVHFLPVVISDNGMPSRTGTSTLTVAVCKCNEQGEFTFCEDMAAQVGVSIQAVVAILLCILTITVITLLIFLRRRLRKQARAHGKSVPEIHEQLVTYDEEGGGEMDTTSYDVSVLNSVRRGGAKPPRPALDARPSLYAQVQKPPRHAPGAHGGPGEMAAMIEVKKDEADHDGDGPPYDTLHIYGYEGSESIAESLSSLGTDSSDSDVDYDFLNDWGPRFKMLAELYGSDPREELLY
For the molecule B2, the binding result in test [2] was “binds”.

B3: Endothelial cell-specific molecule 1 (protein, UniProt Q9NQ30 20-184)
chain: WSNNYAVDCPQHCDSSECKSSPRCKRTVLDDCGCCRVCAAGRGETCYRTVSGMDGMKCGPGLRCQPSNGEDPFGEEFGICKDCPYGTFGMDCRETCNCQSGICDRGTGKCLKFPFFQYSVTKSSNRFVSLTEHDMASGDGNIVREEVVKENAAGSPVMRKWLNPR
On to B3, for which the binding result in test [3] is “binds”.
